Results taken from publication PMC12724340.
Results are given in words; binding and its absence hold for the method and conditions named. In cells and extracts the contact can be indirect. These calls come from enrichment with a bait or labelling near it, and not all partners need be listed.

Amino acid sequences for entries named in this document (tags omitted).
UniProt P49674: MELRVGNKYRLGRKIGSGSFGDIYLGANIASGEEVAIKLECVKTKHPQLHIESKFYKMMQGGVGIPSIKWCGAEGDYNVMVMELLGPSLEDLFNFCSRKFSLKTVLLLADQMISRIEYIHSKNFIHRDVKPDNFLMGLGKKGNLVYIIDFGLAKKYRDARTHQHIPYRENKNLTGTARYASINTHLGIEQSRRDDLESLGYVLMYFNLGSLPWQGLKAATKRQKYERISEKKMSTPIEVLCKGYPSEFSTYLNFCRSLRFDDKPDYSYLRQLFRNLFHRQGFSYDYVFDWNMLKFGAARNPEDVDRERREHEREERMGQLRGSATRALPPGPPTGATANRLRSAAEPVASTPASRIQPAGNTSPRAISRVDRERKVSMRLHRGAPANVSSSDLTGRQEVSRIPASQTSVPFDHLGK

Target: HA-Flag-SHFL (Shiftless) (UniProt Q9NUL5)
Assay: affinity purification with mass spectrometry; HA-Flag tandem affinity purification of HA-Flag-SHFL from doxycycline-induced HEK293 cells; lysate in Co-IP buffer (150 mM NaCl, 25 mM Tris-HCl pH 7.4, 2 mM MgCl2, 0.5% IGEPAL CA-630) with 250 U/mL Benzonase; label-free quantification

In the case of “endogenous casein kinase 1 epsilon (CK1ε) (from UniProt P49674 1-416) (enzyme)”, the binding is reported as “binds”.
